Legend:
[1] = general procedure: Fmoc solid-phase peptide synthesis; Sieber Amide resin (substitution level 0.52 mmol/g); PyBop/HOBt/DIEA and HATU/DIEA (solution couplings to porphyrin); details: conjugation step

## 3,7,12,17-tetramethyl-porphyrin-2 (18)-N9epsilon-(Ace-Asp1-Glu2-Gln3-Gln4-Leu5-His6-Ser7-Gln8-Lys9-Arg10-Lys11-Ile12-Thr13-Leu14-NH2)-18(2)-N9epsilon-(Ace-Asp1-Glu2-Gln3-Gln4-Leu5-Gly6-Ser7-Gln8-Lys9-Arg10-NH2)-di-propionamide
[1]
  conjugation yield: 28% yield

## 3,7,12,17-tetramethyl-porphyrin-2(18)-N9epsilon-(Ace-Asp1-Glu2-Gln3-Gln4-Leu5-His6-Ser7-Gln8-Lys9-Arg10-Lys11-Ile12-Thr13-Leu14-NH2)-18(2)-N9epsilon-(Ace-Asp1-Glu2-Gln3-Gln4-Leu5-Ser6-Ser7-Gln8-Lys9-Arg10-NH2)-di-propionammide
[1]; analytical RP-HPLC
  final HPLC purity: >99%
[1]; run 1
  conjugation yield: yield 42%
[1]; run 2
  conjugation yield: 48% yield

## 3,7,12,17-tetramethyl-porphyrin-2(18)-N9epsilon-(Ace-Asp1-Glu2-Gln3-Gln4-Leu5-His6-Ser7-Gln8-Lys9-Arg10-Lys11-Ile12-Thr13-Leu14-NH2)-18(2)-N9epsilon-(Ace-Asp1-Glu2-Gln3-Gln4-Leu5-Ser6-Ser7-Gln8-Lys9-Leu10-NH2)-di-propionamide
[1]
  conjugation yield: 28% yield

## 3,7,12,17-tetramethyl-porphyrin-2(18)-N9epsilon-(Ace-Asp1-Glu2-Gln3-Gln4-Leu5-His6-Ser7-Gln8-Lys9-Arg10-Lys11-Ile12-Thr13-Leu14-NH2)-18(2)-N9epsilon-(Ace-Asp1-Leu2-Gln3-Gln4-Leu5-Ser6-Ser7-Gln8-Lys9-Arg10-NH2)-di-propionamide
[1]
  conjugation yield: 30% yield

## 3,7,12,17-tetramethyl-porphyrin-2(18)-N9epsilon-(Ace-Asp1-Leu2-Gln3-Gln4-Leu5-His6-Ser7-Gln8-Lys9-Arg10-Lys11-Ile12-Thr13-Leu14-NH2)-18(2)-N9epsilon-(Ace-Asp1-Glu2-Gln3-Gln4-Leu5-Ser6-Ser7-Gln8-Lys9-Arg10-NH2)-di-propionamide
[1]
  conjugation yield: 27% yield

## Fe3+ complex of the product 3,7,12,17-tetramethyl-porphyrin-2 (18)-N9epsilon-(Ace-Asp1-Glu2-Gln3-Gln4-Leu5-His6-Ser7-Gln8-Lys9-Arg10-Lys11-Ile12-Thr13-Leu14-NH2)-18(2)-N9epsilon-(Ace-Asp1-Glu2-Gln3-Gln4-Leu5-Ser6-Ser7-Gln8-Lys9-Arg10-NH2)
Peptide synthesis; conjugation step
  conjugation yield: 25% yield
Peptide synthesis; late stage modification step
  step yield: yield 54%

Reference: patent US20130244232A1 (priority 2012, published 2013)
